Measurements from paper doi:10.1101/2021.05.10.443400 (bioRxiv, 2021).
Results are given in words; binding and its absence hold for the method and conditions named. Binding seen in cells or lysates may run through a third protein. A yes stands for co-enrichment or nearness to the bait. Other partners may have been found.

Protein sequences, listed by entry. Tags and fused reporters are not part of them.
UniProt P52701: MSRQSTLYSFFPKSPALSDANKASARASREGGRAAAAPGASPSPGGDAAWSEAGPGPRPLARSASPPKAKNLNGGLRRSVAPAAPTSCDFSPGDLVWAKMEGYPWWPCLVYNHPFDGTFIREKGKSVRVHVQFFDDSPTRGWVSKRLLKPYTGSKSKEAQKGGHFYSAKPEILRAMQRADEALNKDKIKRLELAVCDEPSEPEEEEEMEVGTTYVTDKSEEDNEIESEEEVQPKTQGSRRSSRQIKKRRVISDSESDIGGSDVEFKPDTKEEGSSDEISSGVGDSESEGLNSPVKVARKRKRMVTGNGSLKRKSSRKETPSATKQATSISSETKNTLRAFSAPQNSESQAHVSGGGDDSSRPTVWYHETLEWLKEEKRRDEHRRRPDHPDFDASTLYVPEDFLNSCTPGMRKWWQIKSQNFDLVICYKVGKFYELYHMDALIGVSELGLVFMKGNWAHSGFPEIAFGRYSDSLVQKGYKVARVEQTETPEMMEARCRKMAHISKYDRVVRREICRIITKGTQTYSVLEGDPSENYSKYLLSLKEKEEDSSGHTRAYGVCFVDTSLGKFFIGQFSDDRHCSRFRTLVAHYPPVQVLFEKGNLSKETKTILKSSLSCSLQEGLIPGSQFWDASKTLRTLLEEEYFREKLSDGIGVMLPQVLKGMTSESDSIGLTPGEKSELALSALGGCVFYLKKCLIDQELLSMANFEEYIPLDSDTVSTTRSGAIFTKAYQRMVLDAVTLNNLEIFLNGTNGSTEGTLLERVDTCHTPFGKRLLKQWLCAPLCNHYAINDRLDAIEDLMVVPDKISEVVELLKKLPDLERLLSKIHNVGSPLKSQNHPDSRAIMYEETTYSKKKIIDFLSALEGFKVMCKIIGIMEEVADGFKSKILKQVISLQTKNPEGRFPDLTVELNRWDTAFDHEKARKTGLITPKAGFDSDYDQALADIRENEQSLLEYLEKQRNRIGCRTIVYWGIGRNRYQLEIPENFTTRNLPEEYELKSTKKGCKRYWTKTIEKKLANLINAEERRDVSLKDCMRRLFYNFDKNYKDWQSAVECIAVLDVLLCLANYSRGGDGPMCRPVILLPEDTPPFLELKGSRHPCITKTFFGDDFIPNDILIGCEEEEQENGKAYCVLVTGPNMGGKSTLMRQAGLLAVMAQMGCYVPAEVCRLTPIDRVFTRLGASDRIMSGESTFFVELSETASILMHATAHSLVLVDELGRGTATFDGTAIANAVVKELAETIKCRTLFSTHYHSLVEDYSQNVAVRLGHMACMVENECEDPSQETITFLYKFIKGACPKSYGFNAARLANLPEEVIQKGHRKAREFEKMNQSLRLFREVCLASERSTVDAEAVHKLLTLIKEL

Target: T1, T7-Orc6 (human) (UniProt Q9Y5N6)
T1 sequence: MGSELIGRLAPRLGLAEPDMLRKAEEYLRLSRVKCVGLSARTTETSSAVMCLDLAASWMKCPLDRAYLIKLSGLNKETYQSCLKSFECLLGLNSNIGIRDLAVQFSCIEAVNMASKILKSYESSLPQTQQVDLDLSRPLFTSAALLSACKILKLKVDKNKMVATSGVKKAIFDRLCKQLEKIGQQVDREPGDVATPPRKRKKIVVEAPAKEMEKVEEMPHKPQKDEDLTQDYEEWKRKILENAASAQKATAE
Experiment: affinity purification with mass spectrometry

binding: binds
Substance: MSH6, endogenous (from UniProt P52701 1-1360)
